Variants at the floor of the assay are shown more often than the library holds them. Where only a bound is given, the exact number is not on record here.

B1: tRNA (parent)
chain: GUUCCGUUGGCGUAAUGGUAACGCGUCUCCCUCCUAAGGAGAAGACUGCGGGUUCGAGUCCCGUACGGAACG

The series covers variants of B1. Put plainly: yeast fitness relative to wild type (ratio to wild type); higher = fitter; tRNA-Arg(CCU), competitive growth, 37 C, YPD. A digest of the protocol:
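Amplicons of the tRNA-Arg(CCU) gene were sequenced, 100-nucleotide paired-end, from the start population and from each end population of a pooled yeast competition. The competition, in six parallel replicates, lasted 24 hours in YPD at 37°C. Fitness relative to wild type was calculated from changes in genotype frequencies. Genotypes had to have ≥ 100 starting reads, and estimates < 0.5 were set to 0.5.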
Regarding A36C A40C G50A, the yeast fitness was no more than 0.5.
A21C C34U A40U: the yeast fitness was no more than 0.5.
With U3A G9A U19A G44C, the yeast fitness was no more than 0.5.
For C24U C34U G52A G58A, the yeast fitness was no more than 0.5.
In the case of U3A A36C G51C U53C, the yeast fitness is no more than 0.5.
The result for C5U U8A G38C A42C reads no more than 0.5; that for A20C A37C G41C G51C, no more than 0.5.
Turning to C4A A15G G56C A69U, the yeast fitness was no more than 0.5.
Consider C4G U8C C31G C33G G58C C60U, for which the yeast fitness was no more than 0.5.
On to G6A G18C A36G, for which the yeast fitness is no more than 0.5.
Consider C11A G51A A69U A70G, for which the yeast fitness was no more than 0.5.
As for C34G G48A G63A, the yeast fitness was no more than 0.5.
As for C5A U13A A57C, the yeast fitness is no more than 0.5.
Turning to U16A G67A, the yeast fitness is 0.926.
For the variant C11U C24U, the yeast fitness came out at 0.852.
Turning to G38C C49G, the yeast fitness came to 0.743.
With U16G U28C the figure was 0.862; with G10A G39C A57C A70U, no more than 0.5.
In the case of G63C U64A C66G, the yeast fitness is no more than 0.5.
With G6C C31A A43C U64C, the yeast fitness is no more than 0.5.
Turning to A14U G18A U53A U64A, the yeast fitness is no more than 0.5.
Turning to A20U G67A, the yeast fitness was determined as 0.657.
With C31A C34A A40C C46G the figure was no more than 0.5; with C30G U32C G39C C46G, no more than 0.5; with U16C A20C A36U, no more than 0.5.
Consider U3A C5G A21U A36C, for which the yeast fitness is no more than 0.5.
Consider U13A C27A C49U C60U C62A A65G, for which the yeast fitness was no more than 0.5.
On to A20C G38C A43U A45G A65C, for which the yeast fitness is no more than 0.5.
Regarding C4A A14U C29U G68A, the yeast fitness was no more than 0.5.
Consider C27G G39A G52A C61G, for which the yeast fitness was no more than 0.5.
Consider C4A A15C C27G C62G, for which the yeast fitness was no more than 0.5.
With C11G U16G U35A G41C U64C the figure was no more than 0.5; with G10A C22U G52C U54C, no more than 0.5; with G63A A70U, 0.816.
With U7C U32A A65C, the yeast fitness is no more than 0.5.
Regarding U16A A42G G67U, the yeast fitness is no more than 0.5.
Turning to C4U G63C, the yeast fitness was determined as 0.782.
In the case of C4G G9A C34U U64G, the yeast fitness is no more than 0.5.
For the variant A14U C29U, the yeast fitness turned out to be 0.64.
With C5A U8C C33U the figure was no more than 0.5.
Regarding C11U A37G G39C G51A, the yeast fitness is no more than 0.5.
Turning to C31A G50U C62G, the yeast fitness was no more than 0.5.
The result for U16C G44A C55A reads no more than 0.5; that for A21U A37C A45U, no more than 0.5; that for C5U A20U G44C C49U U64G G67A, no more than 0.5.
In the case of G6A U13C G52A U59C C66A G67A, the yeast fitness is no more than 0.5.
With G10C A14C A15G the figure was no more than 0.5.
In the case of G41C U64G, the yeast fitness was determined as 0.735.
As for C5U C27U U35G A36G G58C C66U, the yeast fitness is no more than 0.5.
Consider C29A G38C C49G A69C, for which the yeast fitness was no more than 0.5.
For G12A C24U A65C, the yeast fitness was no more than 0.5.
Take C5U U26A: the yeast fitness was determined as 0.915.
Take U19A C31A G41C A45G G50C G67A A69G: the yeast fitness is no more than 0.5.
Regarding C33G G38A C61U G67A, the yeast fitness was no more than 0.5.
With G12A U13C C27G C31U C34A, the yeast fitness was no more than 0.5.
The result for C11A C31A U47A reads no more than 0.5; that for A43G U64G, 0.64; that for U13A C27G C34G, no more than 0.5.
C5G A21U G44C A57G C66U A70U: the yeast fitness is no more than 0.5.
With A37G G39A C62U G63A the figure was no more than 0.5; with U35G G63A, 0.7.
On to C5U A15U G17C C66U, for which the yeast fitness is no more than 0.5.
Regarding G12C A37G G38A A45U C66U, the yeast fitness is no more than 0.5.
Take G10C U47A G48A: the yeast fitness worked out at 0.568.
With A20U G25C A37G the figure was no more than 0.5; with C4U C5G C29U G63A A65G, 0.535.
For C4A U13A C30A U32C C61G, the yeast fitness is no more than 0.5.
Take C4A C31G A43U G48A A65G: the yeast fitness is no more than 0.5.
As to U7A A37C A43C U59C, the yeast fitness was no more than 0.5.
With C22A C33U, the yeast fitness was found to be 0.604.
With C61U G63C the figure was 0.565; with C34U A40G C46A G51A, no more than 0.5; with U16G C49U G63A, 0.994.
A15C C24A A43U: the yeast fitness was no more than 0.5.
For the variant U2A U8C C34G, the yeast fitness was no more than 0.5.
Turning to U2G C46A G68C, the yeast fitness was no more than 0.5.
U8C U13G C22U A36U: the yeast fitness was no more than 0.5.
Regarding U13A C22G G25C C27U C30G, the yeast fitness is no more than 0.5.
Regarding G10A A36C C62G, the yeast fitness is no more than 0.5.
Regarding C11G G44C C66A, the yeast fitness is 0.614.
Take A36C G39C: the yeast fitness is no more than 0.5.
For the variant U2C C11A C22G U54C G56A, the yeast fitness is no more than 0.5.
Turning to G6C U13G C22A C34G, the yeast fitness is no more than 0.5.
With C4U G23U C24G C29U A37G A65G the figure was no more than 0.5; with C5G G23A C60U C62G, no more than 0.5; with G12C C29U A45G G51A G56A G63C, no more than 0.5.
For U7A G10A A20C C29A C55G G63C, the yeast fitness was no more than 0.5.
With C5A C29U A43C A69U the figure was no more than 0.5; with U3C G6A C30U A45G C46U, no more than 0.5; with C24U C31A C33A C34U C46A G67A, no more than 0.5.
As to G6A C24U G52A C61A, the yeast fitness is no more than 0.5.
As for U19A C30U U47A G67C, the yeast fitness was no more than 0.5.
For the variant C4G A21C C49G, the yeast fitness is no more than 0.5.
Take U13A A37U U53G: the yeast fitness stood at 0.536.
With A15G, the yeast fitness worked out at 0.987.
With G12A C24A A57G the figure was no more than 0.5; with U2A C29A A40G C49G, no more than 0.5; with C11U C22G C34G A40C A69U, no more than 0.5.
For the variant C4A G10A C29U C33U A42C, the yeast fitness was no more than 0.5.
In the case of U7A C29U A36U G67A, the yeast fitness is no more than 0.5.
Consider U7G U35A C49G C60A, for which the yeast fitness was no more than 0.5.
For the variant G6A A15G G63C, the yeast fitness is no more than 0.5.
On to C5A C11U A14U A43G, for which the yeast fitness was no more than 0.5.
Turning to A20U U28C C30U A43G U64C, the yeast fitness is no more than 0.5.
For C5U C22U C24G A42C U53G G67C, the yeast fitness is no more than 0.5.
With U2C U16A C30U G56A A69C, the yeast fitness was no more than 0.5.
The result for A15C C27U G52A C61A reads no more than 0.5; that for U8G U32A C33G C61U C62U, no more than 0.5; that for C34A U53A U54G, no more than 0.5.
Turning to G6A C24G C30A U47C, the yeast fitness was no more than 0.5.
As for A20C G56U, the yeast fitness was found to be 0.765.
Turning to C33A U35C, the yeast fitness is no more than 0.5.
In the case of C11A U16C U32G C49G C55A A65G, the yeast fitness was no more than 0.5.
For G10A A20G U26C G39A G50C, the yeast fitness was no more than 0.5.
In the case of G18C A45U G52A A65U, the yeast fitness was no more than 0.5.
As to C5U G41A A57G, the yeast fitness is no more than 0.5.
Turning to A43U G56C, the yeast fitness was 0.702.
Take U7C C11G C31A G39A G48A C61U A65C: the yeast fitness was no more than 0.5.
Consider C22G C29G C31G C55G, for which the yeast fitness was no more than 0.5.
On to U2C U3A U32A U59C, for which the yeast fitness is no more than 0.5.
The result for C29U G39C G48C reads no more than 0.5; that for U28A A57C C61G, no more than 0.5.
Regarding C4G A14U G23A G48A, the yeast fitness is no more than 0.5.
With G6A G9C A14G, the yeast fitness was no more than 0.5.
Consider U8A A20U G63C C66G, for which the yeast fitness is no more than 0.5.
The result for G10C C34G A40G C46G C49A U59C reads no more than 0.5; that for C22U C55G A57C, no more than 0.5.
In the case of C4G C11A A14C C22G G25C G44A C61G, the yeast fitness is no more than 0.5.
Regarding C55U G67C G68A, the yeast fitness was no more than 0.5.
The result for U13C A37C A70U reads no more than 0.5.
On to C22A A40G G51C A69C, for which the yeast fitness was no more than 0.5.
On to A36C A37G, for which the yeast fitness came out at 0.611.
In the case of A20C C24G G39A, the yeast fitness was no more than 0.5.
In the case of C27U A37U G56A, the yeast fitness was no more than 0.5.
With A15U C22G C31U U47C U59C the figure was no more than 0.5; with G9A C29A A36U, no more than 0.5.
For the variant C29A U32C A42U, the yeast fitness was no more than 0.5.
As to A15C A20C C55U, the yeast fitness was no more than 0.5.
Take G6A A57U C61G: the yeast fitness is no more than 0.5.
As to C27G U28C C55G, the yeast fitness was no more than 0.5.
C11G U26A C27A C29G C46A G50A G58A C62U: the yeast fitness is no more than 0.5.
As to G6A C11G C34G A42G, the yeast fitness was no more than 0.5.
For C5U U35A A57G, the yeast fitness was no more than 0.5.
A14U G51C: the yeast fitness is no more than 0.5.
The result for A15U A20G G41C reads no more than 0.5; that for C11U G18A A20U C22G C31G, no more than 0.5; that for C11U A14G A65U G68A, 0.617.
Take C5G C27U: the yeast fitness was found to be 0.651.
Regarding C5G G25A, the yeast fitness amounted to 0.981.
The result for A20U U26A reads 0.754.
U2C G10C: the yeast fitness was found to be 0.724.
As to U28A C31A A42C A45U G48A G51A U64A, the yeast fitness is no more than 0.5.
With C24G C31U U59C the figure was no more than 0.5.
Consider A15C C22U A40U G48A U53A G67C, for which the yeast fitness is no more than 0.5.
With C29U C49U C55G, the yeast fitness was no more than 0.5.
Take C5U U13A A42U C46U C62U: the yeast fitness was no more than 0.5.
As to U3C G38C A40U G51A C60U G68A, the yeast fitness was no more than 0.5.
The result for C22U U32G C34U A40G U47C reads no more than 0.5; that for C34U A36G G50A G56C, no more than 0.5; that for G17C G38A G51A C62G G63C C66G A69U, no more than 0.5.
Consider C5G U16C A20G C60A G63A, for which the yeast fitness was no more than 0.5.
With C33A U35C C46U C49U G51A G52C C61U C66U the figure was no more than 0.5.
U13A U28C G51A A69C: the yeast fitness was no more than 0.5.
As for G10A C11G A20U C31U, the yeast fitness was no more than 0.5.
With U13C A15U G23A C33A A42G G56A the figure was no more than 0.5; with G23C C61G G67A G68C, no more than 0.5.
U16A A36G G51A: the yeast fitness was no more than 0.5.
